Experimental data: PubChem BioAssay AID504793 (Drosophila RNAi Screening Center, 2011)
Test: 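Whole-genome screen for parts of the DNA damage checkpoint at G2/M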 (primary screen). Cell system: Drosophila S2R+ cells. Knock-down reagent: long dsRNA against Drosophila genes, about 0.25 µg dsRNA per well. Duration: 4 days of dsRNA, then 4 hours of drug before read-out. Challenge: doxorubicin 0.5 µM for 4 hours to cause double-strand breaks, in cells also given a low, harmless dose of dsRNA against nbs to sensitise the assay. Measurement: 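Mitotic index as the number of phospho-histone H3-positive cells in each well following doxorubicin, given as raw counts without normalisation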. Reading the numbers: mitotic cells: higher = more cells in mitosis, weaker G2 arrest. Active means: 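Genes are called active only when high mitotic counts were reproduced with independent dsRNAs and mitosis was checked for delay without damage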. Calls: active = confirmed in follow-up tests; inactive = not confirmed.
In all, the deposit lists about 23,000 reagents; shown is a random part of those that have a named target and a result. In the full data, 62 (0.27%) are marked active. 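Calls come from follow-up tests whose scores are not deposited, so confirmed genes may have low counts here; counts are not normalised per plate.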 Raw values vary from plate to plate and are shown uncorrected. Names joined by + are all predicted targets of the reagent.

| Target gene | DRSC id | mitotic cells, replicate 1 | mitotic cells, replicate 2 | activity call |
| --- | --- | --- | --- | --- |
| CG32793 | DRSC18145 | 15 | – | inactive |
| CG32793 | DRSC18194 | 14 | – | inactive |
| CG32793 | DRSC28737 | 11 | – | inactive |
| GABA-B-R2 | DRSC14134 | 6 | – | inactive |
| GABA-B-R2 | DRSC28127 | 1 | – | inactive |
| CG16824 | DRSC02525 | 4 | – | inactive |
| Axs | DRSC19333 | 11 | – | inactive |
| Gel | DRSC12350 | – | – | inactive |
| Gel | DRSC24569 | 6 | – | inactive |
| botv | DRSC05949 | 3 | – | inactive |
| botv | DRSC28034 | 4 | – | inactive |
| CG13949 | DRSC00367 | 6 | – | inactive |
| CG13949 | DRSC25702 | 5 | – | inactive |
| CG9586 | DRSC03270 | 5 | – | inactive |
| CG9586 | DRSC30001 | 10 | – | inactive |
| Obp56e | DRSC07188 | 4 | – | inactive |
| CG9897 + asRNA:CR42742 | DRSC04595 | 2 | – | inactive |
| Surf4 | DRSC16875 | 3 | – | inactive |
| Osi3 | DRSC12175 | 4 | – | inactive |
| AstC-R2 | DRSC23467 | 4 | – | inactive |
| CG14329 | DRSC14808 | 15 | – | inactive |
| lwr | DRSC00828 | 14 | – | inactive |
| lwr | DRSC27034 | 18 | – | active |
| Suv3 | DRSC12335 | 8 | – | inactive |
| CG34433 | DRSC15077 | 12 | – | inactive |
| CG11857 | DRSC14411 | 11 | – | inactive |
| GluProRS | DRSC14095 | 5 | – | inactive |
| CG44153 | DRSC02228 | 5 | – | inactive |
| CG44153 | DRSC02229 | 4 | – | inactive |
| CG44153 | DRSC02902 | 2 | – | inactive |
| CG44153 | DRSC02903 | 6 | – | inactive |
| can | DRSC10664 | 5 | – | inactive |
| CG12880 | DRSC14568 | 6 | – | inactive |
| obe | DRSC15736 | 8 | – | inactive |
| CG13705 | DRSC08314 | 5 | – | inactive |
| CG13705 | DRSC22691 | 14 | – | inactive |
| CG13705 | DRSC25173 | 6 | – | inactive |
| Sf3b5 | DRSC14460 | 7 | – | inactive |

Continued (3 carried over from the part before).
| Target gene | DRSC id | mitotic cells, replicate 1 | mitotic cells, replicate 2 | activity call |
| --- | --- | --- | --- | --- |
| CG13705 | DRSC22691 | 14 | – | inactive |
| CG13705 | DRSC25173 | 6 | – | inactive |
| Sf3b5 | DRSC14460 | 7 | – | inactive |
| CG13029 | DRSC09909 | 7 | – | inactive |
| CG6700 | DRSC02980 | 3 | – | inactive |
| CG6700 | DRSC25626 | 7 | – | inactive |
| qsm | DRSC05896 | 9 | – | inactive |
| qsm | DRSC06393 | 5 | – | inactive |
| qsm | DRSC25212 | 8 | – | inactive |
| CG30031 + deltaTry + CG30025 + 1 more | DRSC21262 | 6 | – | inactive |
| XNP | DRSC15594 | 7 | – | inactive |
| XNP | DRSC27285 | 5 | – | inactive |
| CG6415 | DRSC02954 | 6 | – | inactive |
| CG6415 | DRSC29833 | 7 | – | inactive |
| CG9922 | DRSC16579 | 3 | – | inactive |
| CG9922 | DRSC29719 | 5 | – | inactive |
| Cdep | DRSC12028 | 13 | – | inactive |
| Cdep | DRSC12220 | 6 | – | inactive |
| Cdep | DRSC12291 | 6 | – | inactive |
| CG11044 | DRSC06026 | 6 | – | inactive |
| CG11044 | DRSC27143 | 6 | – | inactive |
| CG32647 | DRSC19690 | 21 | – | inactive |
| CG32647 | DRSC19878 | 7 | – | inactive |
| TkR99D | DRSC16881 | 8 | – | inactive |
| Dnali1 | DRSC16158 | 5 | – | inactive |
| CG34109 | DRSC02169 | 2 | – | inactive |
| CG34109 | DRSC02224 | 5 | – | inactive |
| CG34109 | DRSC02225 | 5 | – | inactive |
| CG34109 | DRSC26977 | 4 | – | inactive |
| CG34109 | DRSC30104 | 3 | – | inactive |
| RhoGAP16F | DRSC20025 | 4 | – | inactive |
| CG6495 | DRSC01993 | 7 | – | inactive |
| CG6495 | DRSC29128 | 1 | – | inactive |
| CG11269 | DRSC04094 | 6 | – | inactive |
| nxf4 | DRSC12548 | 5 | – | inactive |
| CR14117 | DRSC10121 | 5 | – | inactive |
| CR14117 | DRSC25950 | 7 | – | inactive |
| CG8157 | DRSC07085 | 5 | – | inactive |
| CG8157 | DRSC21595 | 12 | – | inactive |
| CG8157 | DRSC25401 | 5 | – | inactive |
| Sur | DRSC03447 | 6 | – | inactive |
| Sur | DRSC27276 | 5 | – | inactive |
| CG14835 | DRSC10205 | 8 | – | inactive |
| CG3092 | DRSC04336 | 6 | – | inactive |
| CG3092 | DRSC30054 | 6 | – | inactive |
| Ant2 | DRSC19330 | 8 | – | inactive |
| Ant2 | DRSC26446 | 4 | – | inactive |
| Nep3 | DRSC20685 | 9 | – | inactive |
| Nep3 | DRSC29285 | 8 | – | inactive |
| CG7860 | DRSC20060 | 4 | – | inactive |
| CG10576 | DRSC09745 | 5 | – | inactive |
| CG10600 | DRSC02074 | 5 | – | inactive |
| tw | DRSC18537 | 3 | – | inactive |
| crn | DRSC18184 | 4 | – | inactive |
| crn | DRSC18185 | 10 | – | inactive |
| crn | DRSC18755 | 6 | – | inactive |
| CG3349 | DRSC10359 | 5 | – | inactive |
| CG9297 | DRSC16469 | 7 | – | inactive |
| CG9297 | DRSC25256 | 4 | – | inactive |
| CG7058 | DRSC20021 | 2 | – | inactive |
| CG7058 | DRSC25937 | 3 | – | inactive |
| CG15673 | DRSC04263 | 3 | – | inactive |
| Cpsf73 | DRSC16291 | 8 | – | inactive |
| Cpsf73 | DRSC28954 | 5 | – | inactive |
| Ugt317A1 | DRSC04470 | 8 | – | inactive |
| HDAC1 | DRSC08696 | 6 | – | inactive |
| CG42324 | DRSC08431 | 4 | – | inactive |
| CG42324 | DRSC08432 | 6 | – | inactive |
| CG42324 | DRSC26516 | 5 | – | inactive |
| mesh | DRSC14472 | 10 | 8 | inactive |
| mesh | DRSC15098 | 10 | – | inactive |
| mesh | DRSC15099 | 18 | – | inactive |
| CG8519 | DRSC10985 | 6 | – | inactive |
| CG8519 | DRSC26203 | 8 | – | inactive |
| CG9812 | DRSC04566 | 8 | – | inactive |
